# Assay results taken from the supplement of paper PMC4604168 (melanoma cell lines).
# This is one part of the list. Many values rest on one well or one pass, so single values are uncertain.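 Cells were imaged in 1,536-well plates, and nuclei stained with an antibody against cleaved PARP were counted against all DNA-stained nuclei to give the apoptosis fraction. Screening doses were chosen to leave most cells alive, and resting and induced cleaved-PARP levels differ strongly between cell lines.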
# Assays:
# Experiment in all cases: cleaved PARP positive nuclei fraction relative to DMSO control; melanoma cells; higher = more apoptosis
# Settings in all cases: library dose: low library concentration; 72 h
# MZ2-MEL = test system: MZ2-MEL
# MeWo = test system: MeWo
# RPMI7951 = test system: RPMI7951
# RVH-421 = test system: RVH-421
# SkMel28 = test system: SkMel28
# SkMel2 = test system: SkMel2
# SkMel30 = test system: SkMel30
# SkMel5 = test system: SkMel5
# UACC257 = test system: UACC257
# UACC62 = test system: UACC62
# WM115 = test system: WM115
# WM1716 = test system: WM1716
# WM1745 = test system: WM1745
# WM3526 = test system: WM3526
# WM3619 = test system: WM3619
# WM451Lu = test system: WM451Lu
SMILES,cleaved PARP positive nuclei fraction (MZ2-MEL),cleaved PARP positive nuclei fraction (MeWo),cleaved PARP positive nuclei fraction (RPMI7951),cleaved PARP positive nuclei fraction (RVH-421),cleaved PARP positive nuclei fraction (SkMel28),cleaved PARP positive nuclei fraction (SkMel2),cleaved PARP positive nuclei fraction (SkMel30),cleaved PARP positive nuclei fraction (SkMel5),cleaved PARP positive nuclei fraction (UACC257),cleaved PARP positive nuclei fraction (UACC62),cleaved PARP positive nuclei fraction (WM115),cleaved PARP positive nuclei fraction (WM1716),cleaved PARP positive nuclei fraction (WM1745),cleaved PARP positive nuclei fraction (WM3526),cleaved PARP positive nuclei fraction (WM3619),cleaved PARP positive nuclei fraction (WM451Lu)
"C=C(c1ccc(C(=O)O)cc1)c1cc2c(cc1C)C(C)(C)CCC2(C)C [Bexarotene] + NC(=O)Nc1cc(-c2cccc(F)c2)sc1C(=O)N[C@H]1CCCNC1 [AZD7762] (first compound 2 µM, partner dose 0.02 µM)",105%,75.3%,105%,113%,221%,67.9%,58.6%,144%,51.6%,86.7%,73.4%,148%,88.8%,69.3%,122%,94.3%
"Cn1c(=O)n(-c2ccc(C(C)(C)C#N)cc2)c2c3cc(-c4cnc5ccccc5c4)ccc3ncc21 + CN(C)S(=O)(=O)c1ccc2c(c1)/C(=C/c1cc3c([nH]1)CCCC3)C(=O)N2 [SU6656] (first compound 0.004 µM, partner dose 0.4 µM)",118%,105%,86.6%,29.6%,110%,80.1%,67.2%,167%,134%,206%,170%,33.6%,104%,120%,67.2%,55.9%
"O=C(O)c1ccc2c(c1)nc(Nc1cccc(Cl)c1)c1ccncc12 + NCC(=O)Nc1ccc(-n2nc(C(F)(F)F)cc2-c2ccc3c(ccc4ccccc43)c2)cc1 [OSU03012] (first compound 0.4 µM, partner dose 1 µM)",53.6%,84.3%,117%,167%,115%,167%,212%,70.2%,286%,51.6%,71.1%,226%,95.4%,116%,121%,1600%
"O=C(O)c1ccc2c(c1)nc(Nc1cccc(Cl)c1)c1ccncc12 + O=C(CCCCCCC(=O)Nc1ccccc1)NO [vorinostat] (first compound 0.4 µM, partner dose 0.08 µM)",40.8%,47%,206%,97.6%,52.6%,140%,70.8%,26.7%,194%,47.2%,18%,223%,73.7%,80.1%,159%,73.6%
"CS(=O)(=O)CCNCc1ccc(-c2ccc3ncnc(Nc4ccc(OCc5cccc(F)c5)c(Cl)c4)c3c2)o1 [lapatinib] + COc1cc2ncnc(Nc3ccc(Oc4ccccc4)cc3)c2cc1OC [SrcI1] (first compound 0.8 µM, partner dose 2 µM)",131%,114%,74.1%,149%,199%,79.2%,84.1%,78.2%,66.5%,118%,51.9%,61.2%,89.3%,69.3%,96.9%,48.6%
"CC(C)C[C@H](NC(=O)[C@H](Cc1ccccc1)NC(=O)c1cnccn1)B(O)O [Bortezomib] + O=C(O)C(=O)Nc1sc2c(c1C(=O)O)CCNC2 [TCS401] (first compound 0.001 µM, partner dose 1.66667 µM)",207%,67.5%,72.6%,76.5%,99.6%,167%,44.8%,72.9%,117%,117%,82.8%,340%,126%,90%,400%,75.2%
"CNC(=O)c1cc(Oc2ccc(NC(=O)Nc3ccc(Cl)c(C(F)(F)F)c3)cc2)ccn1 [sorafenib] + O=S(=O)(c1ccccc1)N(CC(F)(F)F)c1ccc(C(O)(C(F)(F)F)C(F)(F)F)cc1 [T0901317] (first compound 0.4 µM, partner dose 1.4 µM)",81.8%,58.8%,27.8%,307%,151%,79.1%,53.4%,76%,150%,177%,41.4%,123%,86.3%,85.6%,68.3%,77%
"C=C(c1ccc(C(=O)O)cc1)c1cc2c(cc1C)C(C)(C)CCC2(C)C [Bexarotene] + N#Cc1c(O)c2c(-c3ccc(-c4ccccc4O)cc3)csc2[nH]c1=O [A769662] (first compound 2 µM, partner dose 2 µM)",108%,30.1%,82.4%,23.4%,334%,151%,63%,74%,133%,114%,22.1%,168%,90.5%,87.9%,101%,76.9%
"C[C@@H](Oc1cc(-c2cnn(C3CCNCC3)c2)cnc1N)c1c(Cl)ccc(F)c1Cl [Crizotinib] + CN(NC(=O)CC(=O)NN(C)C(=S)c1ccccc1)C(=S)c1ccccc1 [STA4783] (first compound 0.2 µM, partner dose 0.006 µM)",43.3%,175%,19.6%,379%,29.2%,107%,63.7%,185%,178%,299%,227%,195%,119%,23.7%,110%,80.6%
"Cc1cc(Nc2cc(N3CCN(C)CC3)nc(/C=C/c3ccccc3)n2)n[nH]1 + Cc1ccc(NC(=O)c2cccc(N(C)C)c2)cc1NC(=O)c1ccc(O)cc1 [ZM336372] (first compound 0.04 µM, partner dose 2 µM)",274%,155%,59.2%,157%,630%,123%,28.6%,175%,284%,240%,143%,183%,116%,75.9%,97.3%,157%
"CN1CCN(c2ccc3nc(-c4c(N)c5c(F)cccc5[nH]c4=O)[nH]c3c2)CC1 [Dovitinib] + O=C1NC(=O)/C(=C/c2ccc(-c3ccc(F)cc3O)o2)S1 [AS252424] (first compound 0.1 µM, partner dose 1 µM)",115%,135%,109%,166%,136%,62.1%,96.5%,90%,171%,189%,350%,87.7%,108%,79.7%,106%,37.4%
"O=C(O)c1ccc2c(c1)nc(Nc1cccc(Cl)c1)c1ccncc12 + COc1cc(Nc2ncc(F)c(Nc3ccc4c(n3)NC(=O)C(C)(C)O4)n2)cc(OC)c1OC [Tamatinib] (first compound 0.4 µM, partner dose 0.4 µM)",280%,167%,74.5%,51.8%,72.3%,111%,80.4%,35.4%,236%,142%,122%,100%,129%,146%,118%,153%
"Nc1ncn([C@H]2C[C@H](O)[C@@H](CO)O2)c(=O)n1 [decitabine] + O=C(CCCCCCC(=O)Nc1ccccc1)NO [vorinostat] (first compound 0.1 µM, partner dose 0.08 µM)",156%,50.9%,74.4%,269%,179%,95.6%,73.4%,84.8%,202%,128%,61.6%,97.6%,98.3%,119%,112%,70.3%
"Nc1nc(F)nc2c1ncn2[C@@H]1O[C@H](CO)[C@@H](O)[C@@H]1O [fludarabine] + O=C(O)C(=O)Nc1sc2c(c1C(=O)O)CCNC2 [TCS401] (first compound 0.2 µM, partner dose 1.66667 µM)",38.1%,299%,33%,107%,85.4%,140%,273%,171%,267%,155%,45.2%,69.8%,93.2%,96.2%,77.3%,312%
"C=C(c1ccc(C(=O)O)cc1)c1cc2c(cc1C)C(C)(C)CCC2(C)C [Bexarotene] + COC(=O)c1sccc1S(=O)(=O)Nc1ccc(Nc2ccccc2)cc1OC [GSK0660] (first compound 2 µM, partner dose 1 µM)",139%,166%,89.2%,116%,228%,67.8%,40.2%,171%,60.6%,113%,81.1%,81.7%,96.9%,40.1%,98.1%,55.1%

# Reformatted bar-delimited: part of the list above
SMILES | cleaved PARP positive nuclei fraction (MZ2-MEL) | cleaved PARP positive nuclei fraction (MeWo) | cleaved PARP positive nuclei fraction (RPMI7951) | cleaved PARP positive nuclei fraction (RVH-421) | cleaved PARP positive nuclei fraction (SkMel28) | cleaved PARP positive nuclei fraction (SkMel2) | cleaved PARP positive nuclei fraction (SkMel30) | cleaved PARP positive nuclei fraction (SkMel5) | cleaved PARP positive nuclei fraction (UACC257) | cleaved PARP positive nuclei fraction (UACC62) | cleaved PARP positive nuclei fraction (WM115) | cleaved PARP positive nuclei fraction (WM1716) | cleaved PARP positive nuclei fraction (WM1745) | cleaved PARP positive nuclei fraction (WM3526) | cleaved PARP positive nuclei fraction (WM3619) | cleaved PARP positive nuclei fraction (WM451Lu)
Cn1c(=O)n(-c2ccc(C(C)(C)C#N)cc2)c2c3cc(-c4cnc5ccccc5c4)ccc3ncc21 + CN(C)S(=O)(=O)c1ccc2c(c1)/C(=C/c1cc3c([nH]1)CCCC3)C(=O)N2 [SU6656] (first compound 0.004 µM, partner dose 0.4 µM) | 118% | 105% | 86.6% | 29.6% | 110% | 80.1% | 67.2% | 167% | 134% | 206% | 170% | 33.6% | 104% | 120% | 67.2% | 55.9%
CN1CCN(c2ccc3nc(-c4c(N)c5c(F)cccc5[nH]c4=O)[nH]c3c2)CC1 [Dovitinib] + O=C1NC(=O)/C(=C/c2ccc(-c3ccc(F)cc3O)o2)S1 [AS252424] (first compound 0.1 µM, partner dose 1 µM) | 115% | 135% | 109% | 166% | 136% | 62.1% | 96.5% | 90% | 171% | 189% | 350% | 87.7% | 108% | 79.7% | 106% | 37.4%
